The target of experiment [1] is T1, α-COP variant D243G (α-COP-FLAG), stably expressed in MEFs (mouse) (UniProt Q8CIE6).
T1 sequence: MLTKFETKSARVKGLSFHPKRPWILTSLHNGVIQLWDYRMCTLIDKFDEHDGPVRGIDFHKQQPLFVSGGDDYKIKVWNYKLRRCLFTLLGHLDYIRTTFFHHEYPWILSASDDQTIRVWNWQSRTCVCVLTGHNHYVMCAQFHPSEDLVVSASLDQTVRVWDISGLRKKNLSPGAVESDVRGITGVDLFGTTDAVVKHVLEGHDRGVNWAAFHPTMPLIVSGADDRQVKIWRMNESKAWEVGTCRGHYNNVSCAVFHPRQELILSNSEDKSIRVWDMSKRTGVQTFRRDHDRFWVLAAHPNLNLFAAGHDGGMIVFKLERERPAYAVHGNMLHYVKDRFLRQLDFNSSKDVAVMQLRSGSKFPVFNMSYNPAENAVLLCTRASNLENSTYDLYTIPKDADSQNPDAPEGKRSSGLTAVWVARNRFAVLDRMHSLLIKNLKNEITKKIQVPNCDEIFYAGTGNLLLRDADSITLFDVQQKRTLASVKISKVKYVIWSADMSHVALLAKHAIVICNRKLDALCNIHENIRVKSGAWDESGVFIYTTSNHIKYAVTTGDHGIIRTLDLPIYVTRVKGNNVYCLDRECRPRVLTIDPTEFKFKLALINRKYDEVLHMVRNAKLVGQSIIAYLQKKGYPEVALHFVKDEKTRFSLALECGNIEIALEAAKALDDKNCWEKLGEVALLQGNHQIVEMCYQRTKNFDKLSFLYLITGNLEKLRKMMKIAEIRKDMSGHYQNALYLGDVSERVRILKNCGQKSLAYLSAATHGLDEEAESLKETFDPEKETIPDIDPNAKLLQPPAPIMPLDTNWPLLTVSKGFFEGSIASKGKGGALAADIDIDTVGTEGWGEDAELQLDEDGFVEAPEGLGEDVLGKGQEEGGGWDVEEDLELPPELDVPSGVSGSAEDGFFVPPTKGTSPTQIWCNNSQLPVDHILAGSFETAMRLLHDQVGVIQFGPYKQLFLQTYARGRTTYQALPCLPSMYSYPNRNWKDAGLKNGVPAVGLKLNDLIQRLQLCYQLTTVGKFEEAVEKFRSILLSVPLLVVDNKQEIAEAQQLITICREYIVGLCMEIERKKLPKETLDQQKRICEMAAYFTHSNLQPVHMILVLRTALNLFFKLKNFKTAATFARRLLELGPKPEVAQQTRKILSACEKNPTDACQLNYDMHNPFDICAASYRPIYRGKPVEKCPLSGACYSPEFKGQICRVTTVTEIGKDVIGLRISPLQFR
Nature of the experiment: co-IP.

The target of experiment [2] is T2, α-COP variant E241K (α-COP-FLAG), stably expressed in MEFs (mouse) (UniProt Q8CIE6).
T2 sequence: T1 sequence with E241K, G243D
Kind of experiment: co-IP.

Binding data for 1 substance are collected here from doi:10.1101/2020.05.20.107664.

Substitutions are numbered along the chain they refer to. Results are given in words; binding and its absence hold for the method and conditions named. In cells and extracts the contact can be indirect. Binding can be weak; no strength is given. Sequences can lack the tags named with a protein.

On to “EGFP-mouse STING, stably expressed in MEFs”, for which the binding entry in experiment [1] and in experiment [2] was “binds” throughout.
